B1: P55937 (protein, UniProt P55937 1-1487, looked up)
chain: MDGASAKQDGLWESKSSSDVSSCPEASLETVGSLARLPDQQDTAQDASVEVNRGFKEEGSPDRSSQVAICQNGQIPDLQLSLDPTTSPVGPDASTGVDGFHDNLRNSQGTSAEGSVRKEALQSLRLSLPMQETQLCSTASSLPLEKEEQVRLQARKRLEEQLMQYRVKRHRERSSQPATKMKLFSTLDPELMLNPENLPRASTVAVTKEYSFLRTSVPRGPKVGSLGLLAHSKEKKNSKSSKIRSLADYRTEDPSDSGGLGSTADAVGSSLKQSRSSTSVVSEVSPSSETDNRVESASMTGDSVSEADGNESDSSSHSSLSARGACGVLGNVGMPGTAYMVDGQEISAEALGQFPSIKDVLQAAAAQHQDQNQEANGEVRSRRDSICSSVSMESSLAEPQDELLQILKDKRRLEGQVEALSLEASQALQEKAELQAQLAALSTRLQAQVEHSHSSQQKQDSLSSEVDTLKQSCWDLGRAMTDLQSMLEAKNASLASSNNDLQVAEEQYQRLMAKVEDMQRNILSKDNTVHDLRQQMTALQSQLQQVQLERTTLTSKLQASQAEITSLQHARQWYQQQLTLAQEARVRLQGEMAHIQVGQMTQAGLLEHLKLENVSLSHQLTETQHRSIKEKERIAVQLQSIEADMLDQEAAFVQIREAKTMVEEDLQRRLEEFEGEREQLQKVADAAASLEQQLEQVKLTLFQRDQQLAALQQEHLDVIKQLTSTQEALQAKGQSLDDLHTRYDELQARLEELQREADSREDAIHFLQNEKIVLEVALQSAKSDKEELDRGARRLEEDTEETSGLLEQLRQDLAVKSNQVEHLQQETATLRKQMQKVKEQFVQQKVMVEAYRRDATSKDQLINELKATKKRLDSEMKELRQELIKLQGEKKTVEVEHSRLQKDMSLVHQQMAELEGHLQSVQKERDEMEIHLQSLKFDKEQMIALTEANETLKKQIEELQQEAKKAITEQKQKMKRLGSDLTSAQKEMKTKHKAYENAVSILSRRLQEALASKEATDAELNQLRAQSTGGSSDPVLHEKIRALEVELQNVGQSKILLEKELQEVITMTSQELEESREKVLELEDELQESRGFRRKIKRLEESNKKLALELEHERGKLTGLGQSNAALREHNSILETALAKREADLVQLNLQVQAVLQRKEEEDRQMKQLVQALQVSLEKEKMEVNSLKEQMAAARIEAGHNRRHFKAATLELSEVKKELQAKEHLVQTLQAEVDELQIQDGKHSQEIAQFQTELAEARTQLQLLQKKLDEQMSQQPTGSQEMEDLKWELDQKEREIQSLKQQLDLTEQQGKKELEGTQQTLQTIKSELEMVQEDLSETQKDKFMLQAKVSELKNNMKTLLQQNQQLKLDLRRGAAKKKEPKGESNSSSPATPIKIPDCPVPASLLEELLRPPPAVSKEPLKNLNNCLQQLKQEMDSLQRQMEEHTITVHESLSSWAQVEAAPAEHAHPRGDTKLHNQNSVPRDGLGQ
modifications: full-length
B2: P80318 (protein, UniProt P80318 1-545, looked up)
chain: MMGHRPVLVLSQNTKRESGRKVQSGNINAAKTIADIIRTCLGPKSMMKMLLDPMGGIVMTNDGNAILREIQVQHPAAKSMIEISRTQDEEVGDGTTSVIILAGEMLSVAEHFLEQQMHPTVVISAYRMALDDMISTLKKISTPVDVNNREMMLSIINSSITTKVISRWSSLACNIALDAVKTVQFEENGRKEIDIKKYARVEKIPGGIIEDSCVLRGVMINKDVTHPRMRRYIKNPRIVLLDSSLEYKKGESQTDIEITREEDFTRILQMEEEYIHQLCEDIIQLKPDVVITEKGISDLAQHYLMRANVTAIRRVRKTDNNRIARACGARIVSRPEELREDDVGTGAGLLEIKKIGDEYFTFITDCKDPKACTILLRGASKEILSEVERNLQDAMQVCRNVLLDPQLVPGGGASEMAVAHALTEKSKAMTGVEQWPYRAVAQALEVIPRTLIQNCGASTIRLLTSLRAKHTQESCETWGVNGETGTLVDMKELGIWEPLAVKLQTYKTAVETAVLLLRIDDIVSGHKKKGDDQNRQTGAPDAGQE
modifications: full-length

System: CA19-9 modified proteins
Experiment: CA19-9 IP/MS (iTRAQ) of organoid conditioned media after Dox treatment
Set-up: species or system mouse
Conditions: CA19-9 IP/MS relative abundance; for 17 0H NS19 / 17 8H 5B1 / 17 8H NS19: A217 (genetic negative) organoid conditioned media; for 17 0H NS19 / 20 0H 5B1: 0H (before treatment); for 17 0H NS19 / 17 8H NS19: IP with NS19-9; for 17 0H NS19: reference channel = 1; for 17 8H 5B1 / 17 8H NS19: after 8 hours; for 17 8H 5B1 / 20 0H 5B1: IP with 5B1; for 20 0H 5B1: A220 (C;R^LSL;F) organoid conditioned media

Molecule	17 0H NS19	17 8H 5B1	17 8H NS19	20 0H 5B1
B1	1	2.198	0.697	1.942
B2	1	5.943	0.584	4.809

From patent publication US12378320B2, “Methods for treating pancreatitis” (Cold Spring Harbor Laboratory, priority 2018, dated 2025)
